# Test results: publication PMC7358432
# Chains of the proteins cited; added tags and fusions are not shown. Lines headed by an entry give the natural chain unless they say otherwise; changes in a name come on top.
# UniProt A0A0D1C3B2: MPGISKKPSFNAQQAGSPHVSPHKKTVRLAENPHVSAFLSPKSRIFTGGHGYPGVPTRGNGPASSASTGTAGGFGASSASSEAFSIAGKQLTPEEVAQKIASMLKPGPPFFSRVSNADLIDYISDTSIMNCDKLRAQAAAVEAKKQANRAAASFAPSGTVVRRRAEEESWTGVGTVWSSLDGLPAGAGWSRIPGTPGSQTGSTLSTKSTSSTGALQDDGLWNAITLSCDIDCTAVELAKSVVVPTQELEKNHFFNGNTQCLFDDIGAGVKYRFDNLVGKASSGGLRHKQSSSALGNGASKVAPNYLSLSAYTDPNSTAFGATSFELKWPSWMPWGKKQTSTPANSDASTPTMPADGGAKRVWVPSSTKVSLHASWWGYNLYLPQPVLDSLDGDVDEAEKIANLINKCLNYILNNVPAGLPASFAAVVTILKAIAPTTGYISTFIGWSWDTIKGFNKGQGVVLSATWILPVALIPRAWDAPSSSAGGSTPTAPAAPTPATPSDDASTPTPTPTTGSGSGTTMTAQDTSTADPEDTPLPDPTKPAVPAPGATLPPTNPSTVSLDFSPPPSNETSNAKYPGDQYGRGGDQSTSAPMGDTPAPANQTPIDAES
# Target: chitinase Cts1 (Ustilago maydis)
# Experiment: two-hybrid; Clontech MatchMaker III system in S. cerevisiae AH109; Gal4 AD and BD fusions, both combinations; serial dilutions on selection plates; auto-activation excluded with control plasmids
substance,measurement,value
Jps1 (jammed in protein secretion screen 1) (from UniProt A0A0D1C3B2),binding,binds weakly

# These are yes or no findings as the source states them, for the method shown. Binding can be weak; no strength is given.
